The other results are listed elsewhere or left out. Shown are side measurements of this screen, not its main read-out; they come without a call. Most of these compounds were active or inconclusive in the main read-out, so they are no random draw. Words in brackets tell the shape of the fitted curve; partial curves, single points and poor fits give uncertain potencies.
Test: IkB Signaling
Settings: ABC-DLBCL IkBa-CBG/CBR dual luciferase ratio (green luciferase fused to IkBa over red control in OCI-Ly3 lymphoma cells), 4 h
Method in brief: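 Luminescence ratio of IκBα-fused green versus native red beetle luciferase in OCI-Ly3 cells, 4 h post-doxycycline with compound; red signal alone, scaled from basal (0%) to zero light (-100%), flagged nonspecific or cytotoxic effects.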

[1] = measured here: control luc red channel unless noted

For CC(=O)c1cccc(NC(c2ccc(F)cc2)c2nnc(-c3ccccc3)o2)c1 (configuration not stated), which AC50 [1] is on record?
The AC50 was 10 µM [falling, partial curve].

With c1ccc(-c2nnc(N3CCN(c4ccccn4)CC3)c3ccccc23)cc1 as the molecule, how does the AC50 [1] read?
The AC50 was 10 µM [falling, partial curve].

For Cc1ccc(-n2nnnc2CNC(=O)C(C)C)cc1C, which AC50 [1] is on record?
The AC50 was 0.501 µM [falling, full curve, poor fit].

With COC(=O)c1c(-c2ccc(Cl)cc2)noc1N1CCN(c2cccc(C(F)(F)F)c2)CC1 as the molecule, how does the AC50 [1] read?
Its AC50 is 2.51 µM [falling, full curve].

Which AC50 [1] does the source give for O=C(Nc1ccccc1C(=O)OCc1cc(=O)n2c3c(sc2n1)CCCC3)c1cccc(Cl)c1 here?
Its AC50 is 20 µM [falling, partial curve].

With Cc1cc(C)nc(NS(=O)(=O)c2ccc(NC(=O)COc3ccc(C(C)(C)C)cc3)cc2)n1 as the molecule, how does the AC50 [1] read?
The AC50 was 31.6 µM [falling, partial curve].

With CCOC(=O)CC(NC(=O)N1CCC(CN2CCC(C)CC2)CC1)c1ccccc1 (configuration not stated) as the molecule, how does the AC50 [1] read?
Its AC50 is 0.398 µM [falling, full curve, poor fit].

With Cc1cccc(C)c1Nc1c(-c2ccsc2)nc2ccc(Cl)cn12 as the molecule, how does the AC50 [1] read?
Its AC50 is 10 µM [falling, partial curve].

With CCOC(=O)c1c(-c2ccccc2)csc1NC(=O)c1cc(-c2ccc(Cl)cc2)on1 as the molecule, how does the AC50 [1] read?
The AC50 was 15.8 µM [falling, partial curve].

For CC1=C(C(=O)Nc2ccc(C)cc2C)C(c2ccccc2)n2ncc(C(=O)Nc3ccccc3)c2N1 (configuration not stated), which AC50 [1] is on record?
Its AC50 is 10 µM [falling, partial curve].

With COC(=O)c1ccc2c(=O)n(CCCCCC(=O)N3CCN(c4ccc(OC)cc4)CC3)c(=O)[nH]c2c1 as the molecule, how does the AC50 [1] read?
The AC50 was 7.94 µM [falling, full curve].

With Cc1ccc(NC(=O)C2CCCN(S(=O)(=O)c3cccc4cccnc34)C2)c(C)c1 (configuration not stated) as the molecule, how does the AC50 [1] read?
The AC50 was 31.6 µM [falling, single point].

Which AC50 [1] does the source give for CCOC(=O)CSc1nc2ccc(NC(=O)c3ccccc3F)cc2s1 here?
The AC50 was 2.51 µM [falling, partial curve].

For Cc1onc(-c2ccccc2Cl)c1C(=O)Nc1sc2c(c1C#N)CCC2, which AC50 [1] is on record?
Its AC50 is 39.8 µM [falling, single point].

For CCOc1ccc(CNC(=O)c2ccc(Sc3ccc(Cl)cc3)c(NC(C)=O)c2)cc1OC, which AC50 [1] is on record?
Its AC50 is 31.6 µM [falling, single point].

With CC(=O)c1ccc(N2CCN(C(=O)COc3ccc(F)cc3)CC2)c(F)c1 as the molecule, how does the AC50 [1] read?
The AC50 was 7.94 µM [falling, partial curve].

With CCc1ccc(Nc2nc(N)nc(CSc3nc4ccccc4s3)n2)cc1 as the molecule, how does the AC50 [1] read?
Its AC50 is 39.8 µM [falling, single point].

Which AC50 [1] does the source give for O=C(NCc1cccc(F)c1)c1cccc(NC(=O)c2nsc3ccccc23)c1 here?
Its AC50 is 6.31 µM [falling, partial curve].

For COc1ccc(OC)c(C2c3c(oc4ccc(C)cc4c3=O)C(=O)N2CCCN(C)C)c1 (configuration not stated), which AC50 [1] is on record?
The AC50 was 0.631 µM [falling, partial curve].

Which AC50 [1] does the source give for CCc1ccccc1NS(=O)(=O)c1ccc2c(c1)OCC(C(=O)N1CCCC1)O2 (configuration not stated) here?
The AC50 was 15.8 µM [falling, partial curve].

For Nc1nc(Cl)nc2c1ncn2[C@@H]1O[C@@H](CO)[C@@H](O)[C@H]1O, which AC50 (measured here: IkB-luc green channel) is on record?
Its AC50 is 7.94 µM [rising, partial curve, poor fit].

What about the AC50 (measured here: control luc red channel) of the same molecule?
Its AC50 is 0.158 µM [rising, full curve].

With Cc1cccc(-n2ncc3c(NC4CCCC4)ncnc32)c1 as the molecule, how does the AC50 [1] read?
The AC50 was 20 µM [falling, partial curve].

Which AC50 [1] does the source give for Cc1ccc(Cl)cc1NC(=O)Cn1c(=O)c2ccccc2n2nncc12 here?
The AC50 was 39.8 µM [falling, single point].

For Cc1cccc2cc(COC(=O)COc3ccccc3)c(=O)[nH]c12, which AC50 [1] is on record?
The AC50 was 0.501 µM [falling, full curve].

For COCCNC(=O)c1cc(-c2ccccc2OC)on1, which AC50 [1] is on record?
The AC50 was 0.794 µM [falling, full curve].

Which AC50 [1] does the source give for C=CCn1c(COc2ccc(Cl)cc2)nnc1SCC(=O)N1CC(=O)Nc2ccccc21 here?
Its AC50 is 25.1 µM [falling, single point].

With CCOc1ccccc1NC(=O)c1nnn(CC(=O)Nc2ccc(OC)c(OC)c2)c1N as the molecule, how does the AC50 [1] read?
The AC50 was 15.8 µM [falling, partial curve].

With Cc1cc(=O)n2nc(N3CCC(C(=O)Nc4ccc(C)c(Cl)c4)CC3)sc2n1 as the molecule, how does the AC50 [1] read?
The AC50 was 12.6 µM [falling, partial curve].

For CCSc1ncc(Cl)c(C(=O)Nc2nc3ccc(OC)cc3s2)n1, which AC50 [1] is on record?
The AC50 was 0.01 µM [falling, full curve, poor fit].

With CCc1nonc1NC(=O)c1oc2ccccc2c1C as the molecule, how does the AC50 [1] read?
Its AC50 is 1 µM [rising, full curve].

Which AC50 [1] does the source give for CCOc1cc(C2c3c(-c4ccc(Br)cc4)n[nH]c3C(=O)N2c2ccc(Cl)cc2)ccc1O (configuration not stated) here?
The AC50 was 3.98 µM [falling, full curve].

For COC(=O)c1ccc(Cn2c(=O)cc(C(F)(F)F)c3c(C)nn(C)c32)cc1, which AC50 [1] is on record?
Its AC50 is 0.0631 µM [rising, full curve, poor fit].

For CCCCCc1nc2c(=O)n(C)c3ccccc3c2o1, which AC50 [1] is on record?
The AC50 was 15.8 µM [falling, partial curve].

With CCN(c1ccc(OC)cc1)S(=O)(=O)c1ccc2[nH]c(=O)ccc2c1 as the molecule, how does the AC50 [1] read?
The AC50 was 10 µM [falling, partial curve].

For O=C(NCc1ccc(Cl)cc1)C1CCCN(c2nc3ccccc3n3cccc23)C1 (configuration not stated), which AC50 [1] is on record?
The AC50 was 12.6 µM [falling, partial curve].

For O=C(Cn1c2ncccc2c(=O)n1-c1ccccc1)Nc1ccc(F)c(F)c1, which AC50 [1] is on record?
The AC50 was 39.8 µM [falling, single point].

For Cc1cc(N2CCCCC2)nc2ccc(NC(=O)/C=C/c3ccccc3Cl)cc12, which AC50 [1] is on record?
Its AC50 is 3.98 µM [falling, partial curve].

With Cc1ccccc1Cn1c(=O)n(CCc2ccccc2)c(=O)c2ccccc21 as the molecule, how does the AC50 [1] read?
Its AC50 is 10 µM [falling, partial curve].

For COc1ccccc1-c1cc(C(=O)N2CCCCC2C)no1 (configuration not stated), which AC50 [1] is on record?
The AC50 was 0.1 µM [rising, full curve].

For CCCCC(=O)Nc1ccc2nc(SCC(=O)N3CCCC3)sc2c1, which AC50 [1] is on record?
Its AC50 is 25.1 µM [falling, single point].

Which AC50 [1] does the source give for COc1ccc(CNC(=O)c2nn(-c3ccccc3C)nc2CO)cc1 here?
Its AC50 is 25.1 µM [falling, partial curve].
